These are yes or no findings as the source states them, for the method shown. Some binding calls cover weakened binding; strength is not graded here.
Legend:
^125I-IGF-I (human) [1] = target: ^125I-IGF-I (human) (UniProt P05019); experiment: ligand blot with ^125I-IGF-I after SDS-PAGE
^125I-IGF-I (human) [2] = target: ^125I-IGF-I (human) (UniProt P05019); experiment: solution binding of ^125I-IGF-I, charcoal separation

By UniProt entry, the sequences of proteins in these tests, tags left out. Residues count along the entry.
UniProt P05019, residues 49-118: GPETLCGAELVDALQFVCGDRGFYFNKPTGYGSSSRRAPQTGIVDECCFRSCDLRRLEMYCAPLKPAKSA

binding (^125I-IGF-I (human) [1]): binds
binding (^125I-IGF-I (human) [2]): binds
Substance: wild-type CHO-hIGFBP-3 (6xHis/Xpress/enterokinase-tagged mature human IGFBP-3 expressed in CHO-K1 cells from pRSV-Sec-BP3) (from UniProt P17936 28-291)
